PubChem BioAssay AID1259327 – Drosophila RNAi Screening Center, 2017

Test: 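Data from controls in screens of zinc and manganese toxicity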
Cells: Drosophila S2R+ cells
Reagents: long dsRNA against Drosophila genes
Time to read-out: 5 days (water added on day 4, read one day later)
Treatment: water added as vehicle, no metal, one day before read-out
Measurement: 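Total ATP measured by luciferase light, scaled to plate mean, duplicates averaged, then z-scored across plates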
Reading the numbers: ATP z-score: higher = more total ATP than typical wells; ATP luminescence: higher = more total ATP
Active means: 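Called active when the ATP z-score exceeds 1.5 or falls below -1.5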
Calls: active = hit: ATP up or down; inactive = no clear ATP change
The whole screen tested about 3,100 reagents; shown is an unselected part. 378 of them (12%) were called active. 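Hits include both directions; z-score sign shows ATP rise or fall; raw luminescence values are not plate-normalised.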 A number with no mark means an inactive call. Reagents against one gene are numbered here. Names joined by + are all predicted targets of the reagent. No sequences are given here. The record does not give: the amount of reagent.

Grl36a (GeneID 170887): ATP z-score, duplicate mean = -0.336; ATP luminescence, replicate 1 (RLU) = 5.31e5; ATP luminescence, replicate 2 (RLU) = 5.72e5
nrv1 (GeneID 33952): ATP z-score, duplicate mean = -1.46; ATP luminescence, replicate 1 (RLU) = 3.25e5; ATP luminescence, replicate 2 (RLU) = 4.32e5
CG2519 (GeneID 40666): ATP z-score, duplicate mean = 0.656; ATP luminescence, replicate 1 (RLU) = 8.47e5; ATP luminescence, replicate 2 (RLU) = 7.54e5
Tspo + rempA: ATP z-score, duplicate mean = 0.385; ATP luminescence, replicate 1 (RLU) = 4.89e5; ATP luminescence, replicate 2 (RLU) = 5.24e5
Osi22 (GeneID 41632) #1: ATP z-score, duplicate mean = -0.54; ATP luminescence, replicate 1 (RLU) = 2.79e5; ATP luminescence, replicate 2 (RLU) = 6.94e5
Osi22 (GeneID 41632) #2: ATP z-score, duplicate mean = -0.572; ATP luminescence, replicate 1 (RLU) = 8.67e5; ATP luminescence, replicate 2 (RLU) = 9.70e5
CG16904 (GeneID 41212) #1: ATP z-score, duplicate mean = 0.36; ATP luminescence, replicate 1 (RLU) = 7.62e5; ATP luminescence, replicate 2 (RLU) = 7.24e5
CG16904 (GeneID 41212) #2: ATP z-score, duplicate mean = -0.541; ATP luminescence, replicate 1 (RLU) = 7.56e5; ATP luminescence, replicate 2 (RLU) = 7.59e5
CG4928 (GeneID 32682) #1: ATP z-score, duplicate mean = 1.72 (active); ATP luminescence, replicate 1 (RLU) = 8.68e5; ATP luminescence, replicate 2 (RLU) = 8.98e5
CG4928 (GeneID 32682) #2: ATP z-score, duplicate mean = 2.26 (active); ATP luminescence, replicate 1 (RLU) = 1.11e6; ATP luminescence, replicate 2 (RLU) = 1.08e6
Zip102B (GeneID 43786) #1: ATP z-score, duplicate mean = -0.478; ATP luminescence, replicate 1 (RLU) = 7.37e5; ATP luminescence, replicate 2 (RLU) = 8.45e5
Zip102B (GeneID 43786) #2: ATP z-score, duplicate mean = 0.171; ATP luminescence, replicate 1 (RLU) = 4.09e5; ATP luminescence, replicate 2 (RLU) = 5.47e5
dnt (GeneID 35207) #1: ATP z-score, duplicate mean = 0.857; ATP luminescence, replicate 1 (RLU) = 1.00e6; ATP luminescence, replicate 2 (RLU) = 9.10e5
dnt (GeneID 35207) #2: ATP z-score, duplicate mean = -1.13; ATP luminescence, replicate 1 (RLU) = 4.52e5; ATP luminescence, replicate 2 (RLU) = 5.16e5
GrlHz (GeneID 37648) #1: ATP z-score, duplicate mean = -0.331; ATP luminescence, replicate 1 (RLU) = 6.53e5; ATP luminescence, replicate 2 (RLU) = 7.40e5
GrlHz (GeneID 37648) #2: ATP z-score, duplicate mean = 0.552; ATP luminescence, replicate 1 (RLU) = 4.78e5; ATP luminescence, replicate 2 (RLU) = 5.29e5
wtrw (GeneID 40931) #1: ATP z-score, duplicate mean = 0.488; ATP luminescence, replicate 1 (RLU) = 8.12e5; ATP luminescence, replicate 2 (RLU) = 7.02e5
wtrw (GeneID 40931) #2: ATP z-score, duplicate mean = -1.31; ATP luminescence, replicate 1 (RLU) = 4.98e5; ATP luminescence, replicate 2 (RLU) = 4.39e5
Hmgcr (GeneID 42803): ATP z-score, duplicate mean = 2.29 (active); ATP luminescence, replicate 1 (RLU) = 4.27e5; ATP luminescence, replicate 2 (RLU) = 9.46e5
Sh (GeneID 32780) #1: ATP z-score, duplicate mean = -0.619; ATP luminescence, replicate 1 (RLU) = 6.69e5; ATP luminescence, replicate 2 (RLU) = 6.82e5
Sh (GeneID 32780) #2: ATP z-score, duplicate mean = -0.483; ATP luminescence, replicate 1 (RLU) = 7.11e5; ATP luminescence, replicate 2 (RLU) = 6.47e5
Sh (GeneID 32780) #3: ATP z-score, duplicate mean = -0.373; ATP luminescence, replicate 1 (RLU) = 8.16e5; ATP luminescence, replicate 2 (RLU) = 7.91e5
CG17660 (GeneID 33347) #1: ATP z-score, duplicate mean = -0.282; ATP luminescence, replicate 1 (RLU) = 4.57e5; ATP luminescence, replicate 2 (RLU) = 4.61e5
CG17660 (GeneID 33347) #2: ATP z-score, duplicate mean = 0.772; ATP luminescence, replicate 1 (RLU) = 4.91e5; ATP luminescence, replicate 2 (RLU) = 5.45e5
caps (GeneID 39493) #1: ATP z-score, duplicate mean = -0.0994; ATP luminescence, replicate 1 (RLU) = 8.84e5; ATP luminescence, replicate 2 (RLU) = 8.82e5
caps (GeneID 39493) #2: ATP z-score, duplicate mean = -0.951; ATP luminescence, replicate 1 (RLU) = 6.83e5; ATP luminescence, replicate 2 (RLU) = 7.82e5
p24-1 (GeneID 32140) #1: ATP z-score, duplicate mean = 2.33 (active); ATP luminescence, replicate 1 (RLU) = 8.50e5; ATP luminescence, replicate 2 (RLU) = 8.80e5
p24-1 (GeneID 32140) #2: ATP z-score, duplicate mean = -0.974; ATP luminescence, replicate 1 (RLU) = 1.06e6; ATP luminescence, replicate 2 (RLU) = 1.01e6
CG5810 (GeneID 42513) #1: ATP z-score, duplicate mean = -1.74 (active); ATP luminescence, replicate 1 (RLU) = 4.22e5; ATP luminescence, replicate 2 (RLU) = 4.43e5
CG5810 (GeneID 42513) #2: ATP z-score, duplicate mean = -0.356; ATP luminescence, replicate 1 (RLU) = 4.52e5; ATP luminescence, replicate 2 (RLU) = 4.29e5

4 neighbouring entries already listed:
Hmgcr (GeneID 42803): ATP z-score, duplicate mean = 2.29 (active); ATP luminescence, replicate 1 (RLU) = 4.27e5; ATP luminescence, replicate 2 (RLU) = 9.46e5
Sh (GeneID 32780) #1: ATP z-score, duplicate mean = -0.619; ATP luminescence, replicate 1 (RLU) = 6.69e5; ATP luminescence, replicate 2 (RLU) = 6.82e5
Sh (GeneID 32780) #2: ATP z-score, duplicate mean = -0.483; ATP luminescence, replicate 1 (RLU) = 7.11e5; ATP luminescence, replicate 2 (RLU) = 6.47e5
Sh (GeneID 32780) #3: ATP z-score, duplicate mean = -0.373; ATP luminescence, replicate 1 (RLU) = 8.16e5; ATP luminescence, replicate 2 (RLU) = 7.91e5
